Results published in doi:10.1101/2024.03.05.583565.
These are yes or no findings as the source states them, for the method shown. In cells and extracts the contact can be indirect.

Amino acid sequences for entries named in this document (tags omitted).
UniProt P28347: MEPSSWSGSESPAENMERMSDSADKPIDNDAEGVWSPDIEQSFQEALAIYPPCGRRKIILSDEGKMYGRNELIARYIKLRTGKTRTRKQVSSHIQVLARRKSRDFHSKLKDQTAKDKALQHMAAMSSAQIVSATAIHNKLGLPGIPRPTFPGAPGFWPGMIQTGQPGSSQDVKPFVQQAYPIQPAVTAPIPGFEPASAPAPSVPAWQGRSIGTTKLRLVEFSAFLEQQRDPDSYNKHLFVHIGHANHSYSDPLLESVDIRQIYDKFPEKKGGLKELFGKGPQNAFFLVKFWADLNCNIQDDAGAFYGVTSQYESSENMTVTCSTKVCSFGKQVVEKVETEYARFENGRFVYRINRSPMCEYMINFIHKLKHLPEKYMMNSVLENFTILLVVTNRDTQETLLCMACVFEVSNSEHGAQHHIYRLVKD
UniProt P46937: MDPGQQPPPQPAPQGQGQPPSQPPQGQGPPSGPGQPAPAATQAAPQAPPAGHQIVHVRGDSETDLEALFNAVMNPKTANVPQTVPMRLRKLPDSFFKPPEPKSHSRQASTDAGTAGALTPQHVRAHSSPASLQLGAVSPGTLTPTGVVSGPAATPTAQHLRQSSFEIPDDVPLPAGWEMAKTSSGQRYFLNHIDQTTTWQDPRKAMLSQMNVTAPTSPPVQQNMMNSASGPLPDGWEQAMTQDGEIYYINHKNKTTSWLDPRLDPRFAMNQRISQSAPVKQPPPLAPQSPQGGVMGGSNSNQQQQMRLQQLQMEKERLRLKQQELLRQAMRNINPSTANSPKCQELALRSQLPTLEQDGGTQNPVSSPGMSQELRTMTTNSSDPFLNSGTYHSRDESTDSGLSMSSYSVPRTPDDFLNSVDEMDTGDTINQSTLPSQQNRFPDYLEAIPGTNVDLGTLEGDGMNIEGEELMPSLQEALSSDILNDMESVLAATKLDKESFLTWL

Key:
[1] = target: TEAD1 (human (endogenous in OMM1.3 and UM004)) (UniProt P28347); test: co-IP
[2] = target: YAP1 (human (endogenous in OMM1.3 and UM004)) (UniProt P46937); test: co-IP

B1: NR2F1 (protein, UniProt P10589 1-423)
chain: MAMVVSSWRDPQDDVAGGNPGGPNPAAQAARGGGGGAGEQQQQAGSGAPHTPQTPGQPGAPATPGTAGDKGQGPPGSGQSQQHIECVVCGDKSSGKHYGQFTCEGCKSFFKRSVRRNLTYTCRANRNCPIDQHHRNQCQYCRLKKCLKVGMRREAVQRGRMPPTQPNPGQYALTNGDPLNGHCYLSGYISLLLRAEPYPTSRYGSQCMQPNNIMGIENICELAARLLFSAVEWARNIPFFPDLQITDQVSLLRLTWSELFVLNAAQCSMPLHVAPLLAAAGLHASPMSADRVVAFMDHIRIFQEQVEKLKALHVDSAEYSCLKAIVLFTSDACGLSDAAHIESLQEKSQCALEEYVRSQYPNQPSRFGKLLLRLPSLRTVSSSVIEQLFFVRLVGKTPIETLIRDMLLSGSSFNWPYMSIQCS
Question: What does the source list for B1?
Answer: binding [1]: no binding; binding [2]: no binding
